From patent US20230340127A1, “METHODS AND COMPOSITIONS FOR CANCER TREATMENT BY INHIBITION OF FBXO44” (Sanford Burnham Prebys Medical Discovery Institute, priority 2022, published 2023)

Chains of the proteins cited; added tags and fusions are not shown. Residues count along the entry.
UniProt Q8WXI9: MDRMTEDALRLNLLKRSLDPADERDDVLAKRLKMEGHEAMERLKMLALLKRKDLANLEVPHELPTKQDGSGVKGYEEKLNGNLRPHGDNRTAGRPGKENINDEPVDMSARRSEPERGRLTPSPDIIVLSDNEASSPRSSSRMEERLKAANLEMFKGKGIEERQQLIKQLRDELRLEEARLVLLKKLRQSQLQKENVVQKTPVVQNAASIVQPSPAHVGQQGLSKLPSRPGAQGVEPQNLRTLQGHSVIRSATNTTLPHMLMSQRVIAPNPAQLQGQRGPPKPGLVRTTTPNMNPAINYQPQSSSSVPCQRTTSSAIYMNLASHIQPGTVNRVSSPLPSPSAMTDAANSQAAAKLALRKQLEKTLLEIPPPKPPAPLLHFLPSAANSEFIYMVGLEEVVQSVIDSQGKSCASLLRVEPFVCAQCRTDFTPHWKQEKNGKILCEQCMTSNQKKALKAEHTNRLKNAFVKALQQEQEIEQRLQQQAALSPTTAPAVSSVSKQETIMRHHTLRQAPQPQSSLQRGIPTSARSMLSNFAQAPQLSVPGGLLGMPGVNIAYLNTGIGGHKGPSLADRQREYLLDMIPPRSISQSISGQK
UniProt Q86YP4: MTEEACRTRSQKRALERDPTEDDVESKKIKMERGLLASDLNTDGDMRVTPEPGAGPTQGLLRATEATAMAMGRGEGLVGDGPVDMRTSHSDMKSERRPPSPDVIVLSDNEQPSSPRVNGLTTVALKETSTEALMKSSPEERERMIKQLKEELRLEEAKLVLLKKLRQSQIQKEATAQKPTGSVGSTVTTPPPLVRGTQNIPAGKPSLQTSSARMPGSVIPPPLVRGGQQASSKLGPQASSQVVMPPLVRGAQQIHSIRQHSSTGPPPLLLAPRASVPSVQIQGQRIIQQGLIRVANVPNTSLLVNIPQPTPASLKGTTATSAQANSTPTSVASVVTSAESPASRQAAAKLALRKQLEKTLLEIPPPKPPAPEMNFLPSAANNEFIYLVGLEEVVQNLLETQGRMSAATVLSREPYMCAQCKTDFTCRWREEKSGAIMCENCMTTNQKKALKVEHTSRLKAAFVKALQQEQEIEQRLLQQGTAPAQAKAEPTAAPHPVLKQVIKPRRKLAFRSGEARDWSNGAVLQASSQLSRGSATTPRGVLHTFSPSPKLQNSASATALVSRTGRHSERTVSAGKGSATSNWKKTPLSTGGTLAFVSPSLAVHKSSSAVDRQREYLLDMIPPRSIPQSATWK
UniProt Q09028, residues 2-425: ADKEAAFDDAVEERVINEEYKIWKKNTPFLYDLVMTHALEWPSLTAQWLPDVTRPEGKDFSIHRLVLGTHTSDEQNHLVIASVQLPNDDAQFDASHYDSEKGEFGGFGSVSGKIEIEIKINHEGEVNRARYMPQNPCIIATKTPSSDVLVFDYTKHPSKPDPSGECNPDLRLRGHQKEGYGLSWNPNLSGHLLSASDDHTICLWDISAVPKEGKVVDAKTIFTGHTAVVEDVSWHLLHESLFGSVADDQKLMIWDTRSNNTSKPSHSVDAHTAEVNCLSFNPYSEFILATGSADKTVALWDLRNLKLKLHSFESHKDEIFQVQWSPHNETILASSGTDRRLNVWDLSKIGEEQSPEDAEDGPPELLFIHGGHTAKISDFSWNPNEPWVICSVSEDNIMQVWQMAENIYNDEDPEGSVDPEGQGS
UniProt Q16576, residues 2-425: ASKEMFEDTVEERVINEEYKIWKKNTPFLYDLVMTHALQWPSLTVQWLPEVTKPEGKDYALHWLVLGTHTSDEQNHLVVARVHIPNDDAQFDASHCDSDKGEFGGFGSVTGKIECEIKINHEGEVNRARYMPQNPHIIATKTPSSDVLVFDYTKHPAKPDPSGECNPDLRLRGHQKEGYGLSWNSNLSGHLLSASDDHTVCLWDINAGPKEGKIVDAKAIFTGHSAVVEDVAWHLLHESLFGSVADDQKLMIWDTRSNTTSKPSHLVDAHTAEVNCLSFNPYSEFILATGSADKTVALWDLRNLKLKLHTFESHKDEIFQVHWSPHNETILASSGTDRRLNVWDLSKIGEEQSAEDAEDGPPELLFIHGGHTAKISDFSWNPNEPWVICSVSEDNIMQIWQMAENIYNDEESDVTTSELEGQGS
UniProt Q13620: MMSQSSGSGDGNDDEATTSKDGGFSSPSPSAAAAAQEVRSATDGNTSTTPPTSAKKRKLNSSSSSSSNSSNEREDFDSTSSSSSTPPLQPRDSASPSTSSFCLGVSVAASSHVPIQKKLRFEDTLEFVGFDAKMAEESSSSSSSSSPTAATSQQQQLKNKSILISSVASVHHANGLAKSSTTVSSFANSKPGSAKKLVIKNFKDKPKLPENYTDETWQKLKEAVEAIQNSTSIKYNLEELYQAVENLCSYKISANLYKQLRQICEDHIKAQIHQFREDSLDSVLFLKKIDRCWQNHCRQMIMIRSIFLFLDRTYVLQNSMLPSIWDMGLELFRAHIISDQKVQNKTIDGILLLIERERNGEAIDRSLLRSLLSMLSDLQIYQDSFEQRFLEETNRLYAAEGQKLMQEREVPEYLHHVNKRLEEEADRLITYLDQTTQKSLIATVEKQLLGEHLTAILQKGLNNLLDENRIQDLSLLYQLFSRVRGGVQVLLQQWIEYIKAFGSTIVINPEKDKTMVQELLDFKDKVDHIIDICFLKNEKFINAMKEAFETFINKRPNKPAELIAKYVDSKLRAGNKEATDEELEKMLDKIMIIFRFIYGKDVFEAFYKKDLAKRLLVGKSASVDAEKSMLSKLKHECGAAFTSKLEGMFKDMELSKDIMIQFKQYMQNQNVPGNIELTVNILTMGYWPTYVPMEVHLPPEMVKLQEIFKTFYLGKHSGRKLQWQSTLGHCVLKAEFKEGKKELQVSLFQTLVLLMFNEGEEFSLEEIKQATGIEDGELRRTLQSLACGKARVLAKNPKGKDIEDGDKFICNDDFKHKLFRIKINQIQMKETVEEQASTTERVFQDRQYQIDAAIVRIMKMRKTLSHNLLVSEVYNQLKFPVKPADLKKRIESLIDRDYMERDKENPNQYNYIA

Columns and labels:
Assay in all cases: anti-Flag affinity purification of Flag-FBXO44 complexes, mass spectrometry (FIG. 3A)
GATAD2B (endogenous) = GATAD2B (endogenous) (UniProt Q8WXI9)
GATAD2A (endogenous) = GATAD2A (endogenous) (UniProt Q86YP4)
RBBP4 (endogenous) = RBBP4 (endogenous) (UniProt Q09028)
RBBP7 (endogenous) = RBBP7 (endogenous) (UniProt Q16576)
CUL4B (endogenous) = CUL4B (endogenous) (UniProt Q13620)

Measured: binding

B1: Flag-FBXO44 (protein, human, UniProt Q9H4M3 1-255, looked up, not shown: small tags and cut ends)
chain: MAVGNINELPENILLELFTHVPARQLLLNCRLVCSLWRDLIDLVTLWKRKCLREGFITEDWDQPVADWKIFYFLRSLHRNLLHNPCAEEGFEFWSLDVNGGDEWKVEDLSRDQRKEFPNDQVKKYFVTSYYTCLKSQVVDLKAEGYWEELMDTTRPDIEVKDWFAARPDCGSKYQLCVQLLSSAHAPLGTFQPDPATIQQKSDAKWREVSHTFSNYPPGVRYIWFQHGGVDTHYWAGWYGPRVTNSSITIGPPLP
binds: all assays above

Results are given in words; binding and its absence hold for the method and conditions named. In cells and extracts the contact can be indirect. A yes stands for co-enrichment or nearness to the bait. Other partners may have been found. Sequences can lack the tags named with a protein.
